PubChem BioAssay AID686938 – Drosophila RNAi Screening Center | 2013

- Test: 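Knock-downs reducing store-operated calcium influx in Drosophila cells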 (primary screen)
- Cells: Drosophila S2R+ cells
- Reagent: long dsRNA against Drosophila genes, about 0.25 µg dsRNA per well, roughly 10,000 cells
- Timing: 5 days of knock-down before the calcium assay
- Conditions: thapsigargin (SERCA pump blocker) to empty calcium stores; entry signal taken 4 min after adding it
- Detection: 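Per-well fluo-4 fluorescence in two replicates, unnormalised, measured in resting cells and 4 min after store depletion by the SERCA blocker thapsigargin; ratio of the two present in few wells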
- Direction: calcium entry signal: higher = stronger calcium signal after store depletion; resting calcium signal: higher = higher resting calcium signal
- Units: calcium entry signal in fluorescence units; resting calcium signal in fluorescence units
- Active means: 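Hit if the duplicate-averaged plate z-score for entry over resting signal is under −3; wells with weak total dye signal (Fmax z < −2) or more than 5 off-targets removed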
- Meaning of the calls: active = strongly reduced calcium entry; inactive = no strong reduction
In all, the deposit lists about 23,000 reagents; shown is a random part of those with a known target gene and a result. In the full data, 75 (0.33%) are marked active. 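Raw plate signals without normalisation; calls rest on plate z-scores that were not deposited; ratio present for only 364 wells.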 Entries without a mark were called inactive. The numbers tell different reagents against one gene apart. Reagent sequences are not shown. The record does not give: the dose of the treatment.

Cpr100A → calcium entry signal, replicate 1: 4.01e7; calcium entry signal, replicate 2: 5.87e7; resting calcium signal, replicate 1: 1.86e7; resting calcium signal, replicate 2: 2.38e7
betaTub97EF #1 → calcium entry signal, replicate 1: 2.25e7; calcium entry signal, replicate 2: 3.69e7; resting calcium signal, replicate 1: 1.50e7; resting calcium signal, replicate 2: 1.76e7
betaTub97EF #2 → calcium entry signal, replicate 1: 3.17e7; calcium entry signal, replicate 2: 4.89e7; resting calcium signal, replicate 1: 1.66e7; resting calcium signal, replicate 2: 2.05e7
betaTub97EF #3 → calcium entry signal, replicate 1: 3.27e7; calcium entry signal, replicate 2: 5.24e7; resting calcium signal, replicate 1: 1.75e7; resting calcium signal, replicate 2: 2.11e7
Ugt49C1 → calcium entry signal, replicate 1: 2.79e7; calcium entry signal, replicate 2: 4.21e7; resting calcium signal, replicate 1: 1.53e7; resting calcium signal, replicate 2: 1.97e7
eIF2D → calcium entry signal, replicate 1: 3.20e7; calcium entry signal, replicate 2: 5.22e7; resting calcium signal, replicate 1: 1.56e7; resting calcium signal, replicate 2: 2.23e7
Grip75 → calcium entry signal, replicate 1: 4.10e7; calcium entry signal, replicate 2: 4.07e7; resting calcium signal, replicate 1: 1.93e7; resting calcium signal, replicate 2: 1.93e7
CG15919 → calcium entry signal, replicate 1: 4.44e7; calcium entry signal, replicate 2: 3.45e7; resting calcium signal, replicate 1: 2.57e7; resting calcium signal, replicate 2: 1.75e7
CycB3 → calcium entry signal, replicate 1: 3.64e7; calcium entry signal, replicate 2: 5.53e7; resting calcium signal, replicate 1: 1.79e7; resting calcium signal, replicate 2: 2.27e7
iav → calcium entry signal, replicate 1: 3.30e7; calcium entry signal, replicate 2: 4.13e7; resting calcium signal, replicate 1: 1.66e7; resting calcium signal, replicate 2: 1.96e7

Already shown: entries from further up.
CG15919 → calcium entry signal, replicate 1: 4.44e7; calcium entry signal, replicate 2: 3.45e7; resting calcium signal, replicate 1: 2.57e7; resting calcium signal, replicate 2: 1.75e7
CycB3 → calcium entry signal, replicate 1: 3.64e7; calcium entry signal, replicate 2: 5.53e7; resting calcium signal, replicate 1: 1.79e7; resting calcium signal, replicate 2: 2.27e7

Continued:
Cln3 → calcium entry signal, replicate 1: 4.07e7; calcium entry signal, replicate 2: 6.24e7; resting calcium signal, replicate 1: 1.99e7; resting calcium signal, replicate 2: 2.39e7
stmA #1 → calcium entry signal, replicate 1: 1.62e7; calcium entry signal, replicate 2: 2.65e7; resting calcium signal, replicate 1: 9.22e6; resting calcium signal, replicate 2: 1.21e7
stmA #2 → calcium entry signal, replicate 1: 6.09e7; calcium entry signal, replicate 2: 4.31e7; resting calcium signal, replicate 1: 2.34e7; resting calcium signal, replicate 2: 1.90e7
stmA #3 → calcium entry signal, replicate 1: 2.70e7; calcium entry signal, replicate 2: 2.89e7; resting calcium signal, replicate 1: 1.33e7; resting calcium signal, replicate 2: 1.51e7
CG11601 → calcium entry signal, replicate 1: 4.63e7; calcium entry signal, replicate 2: 4.47e7; resting calcium signal, replicate 1: 2.07e7; resting calcium signal, replicate 2: 1.92e7
Pi3K59F → calcium entry signal, replicate 1: 4.98e7; resting calcium signal, replicate 1: 2.35e7
Abd-B #1 → calcium entry signal, replicate 1: 2.89e7; calcium entry signal, replicate 2: 5.12e7; resting calcium signal, replicate 1: 1.46e7; resting calcium signal, replicate 2: 6.36e7
Abd-B #2 → calcium entry signal, replicate 1: 2.80e7; calcium entry signal, replicate 2: 6.03e7; resting calcium signal, replicate 1: 1.50e7; resting calcium signal, replicate 2: 6.35e7
AttD → calcium entry signal, replicate 1: 6.38e7; calcium entry signal, replicate 2: 2.58e7; resting calcium signal, replicate 1: 3.13e7; resting calcium signal, replicate 2: 1.40e7
CG6015 → calcium entry signal, replicate 1: 1.97e7 (active); calcium entry signal, replicate 2: 2.83e7; resting calcium signal, replicate 1: 1.35e7; resting calcium signal, replicate 2: 1.73e7
CG9646 → calcium entry signal, replicate 1: 2.92e7; calcium entry signal, replicate 2: 3.56e7; resting calcium signal, replicate 1: 1.44e7; resting calcium signal, replicate 2: 1.75e7
